Assay results taken from US6350430B1, “Melanocortin receptor ligands and methods of using same” (Lion Bioscience Science AG, priority 1997, dated 2002).

By UniProt entry, the sequences of proteins in these tests, tags left out. Where a name states a change or a piece, a line headed by the entry shows the natural chain unless it says otherwise.
UniProt P32245, whole entry: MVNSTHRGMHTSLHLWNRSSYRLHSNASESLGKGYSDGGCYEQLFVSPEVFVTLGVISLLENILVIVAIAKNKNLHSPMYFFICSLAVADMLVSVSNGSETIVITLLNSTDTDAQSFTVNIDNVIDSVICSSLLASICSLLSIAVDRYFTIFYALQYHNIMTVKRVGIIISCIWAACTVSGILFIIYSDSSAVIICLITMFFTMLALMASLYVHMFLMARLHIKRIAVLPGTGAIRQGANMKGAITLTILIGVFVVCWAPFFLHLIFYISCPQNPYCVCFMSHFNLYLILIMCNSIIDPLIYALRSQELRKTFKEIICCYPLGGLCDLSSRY
UniProt P41968: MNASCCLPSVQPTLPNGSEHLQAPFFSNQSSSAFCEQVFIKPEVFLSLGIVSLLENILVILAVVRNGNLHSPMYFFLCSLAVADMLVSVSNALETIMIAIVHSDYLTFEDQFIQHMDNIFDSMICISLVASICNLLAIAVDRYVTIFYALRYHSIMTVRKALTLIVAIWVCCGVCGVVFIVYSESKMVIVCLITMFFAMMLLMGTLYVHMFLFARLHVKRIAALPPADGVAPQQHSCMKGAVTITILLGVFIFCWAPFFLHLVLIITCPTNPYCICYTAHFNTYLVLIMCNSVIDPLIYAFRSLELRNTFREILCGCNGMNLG

What was measured:
hMC4 = target: T1, hMC4 (Homo sapiens, UniProt P32245); test: Displacement of ^125I-HP 467 in transfected mouse L cells expressing hMC4; format: binding
T1 construct: expressed in transfected cells; host or cells: mouse L cells

hMC3 = target: T2, hMC3 (Homo sapiens, UniProt P41968); test: Displacement of ^125I-HP 467 in transfected mouse L cells expressing hMC3; format: binding
T2 construct: expressed in transfected cells; host or cells: mouse L cells

- IC50 (hMC4): 7.51 nM
- IC50 (hMC3): 29.7 nM
SMILES: CCCC[C@H](NC(C)=O)C(=O)N[C@@H](CCC(N)=O)C(=O)N[C@@H](Cc1c[nH]cn1)C(=O)N[C@H](Cc1ccccc1)C(=O)N[C@@H](CCCNC(=N)N)C(=O)N[C@H](Cc1c[nH]c2ccccc12)C(=O)NCC(N)=O [HP 228, Ac-(Nle)QHfRwG-NH2, reference compound]
